According to patent publication US20230212268A1 (UNM RAINFOREST INNOVATIONS, published 2023):
No constants are given. Whether binding was seen depends on the method and setting. Some binding calls cover weakened binding; strength is not graded here.

Sequences of proteins named here, by UniProt entry; tags and fusion partners are left off. A change or cut given only in a name is not applied to a line headed by its entry. Residues count along the entry.
UniProt Q66810: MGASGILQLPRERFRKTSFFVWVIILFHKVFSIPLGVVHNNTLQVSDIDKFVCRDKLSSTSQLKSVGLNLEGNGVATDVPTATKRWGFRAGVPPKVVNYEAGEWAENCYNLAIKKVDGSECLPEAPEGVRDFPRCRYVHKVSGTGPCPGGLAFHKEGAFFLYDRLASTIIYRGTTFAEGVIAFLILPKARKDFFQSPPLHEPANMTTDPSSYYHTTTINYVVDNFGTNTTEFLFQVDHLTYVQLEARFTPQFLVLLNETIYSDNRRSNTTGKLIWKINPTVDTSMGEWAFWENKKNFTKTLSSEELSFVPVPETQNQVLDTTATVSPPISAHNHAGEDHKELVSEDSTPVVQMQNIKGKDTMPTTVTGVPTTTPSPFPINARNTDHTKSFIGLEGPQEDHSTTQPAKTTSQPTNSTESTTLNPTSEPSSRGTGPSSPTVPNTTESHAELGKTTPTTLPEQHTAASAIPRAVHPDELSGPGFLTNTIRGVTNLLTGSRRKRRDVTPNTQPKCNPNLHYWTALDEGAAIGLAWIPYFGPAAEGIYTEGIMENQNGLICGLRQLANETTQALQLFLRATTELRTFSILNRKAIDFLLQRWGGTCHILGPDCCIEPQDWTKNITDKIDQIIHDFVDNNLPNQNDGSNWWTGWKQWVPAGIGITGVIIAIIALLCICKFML
TAFV glycoprotein expressed in 293T cells (TAFV (Tai Forest virus)): residues 33-676 of Q66810
recombinant TAFV glycoprotein (TAFV (Tai Forest virus)): residues 33-650 of Q66810

Legend:
[1] = target: recombinant TAFV glycoprotein (TAFV (Tai Forest virus)) (UniProt Q66810); test: ELISA dose response, GP coated
[2] = target: TAFV glycoprotein expressed in 293T cells (TAFV (Tai Forest virus)) (UniProt Q66810); test: IP from lysates of GP-expressing 293T cells
[3] = target: recombinant TAFV glycoprotein (TAFV (Tai Forest virus)) (UniProt Q66810); test: ELISA, GP coated

Measured: binding

B1: EbovGPscFv4-2 (scFv)
scFv: MAWSHPQFEKTGSGGAELVKSGASVKLSCTASGFNIKDDYMHWVKQRPEQGLEWIGWIDPENGDTEYASKFQGKATITADTSSNTAYLQLSSLTSEDTAVYYCTTYYYGSAWFAYWGQGTLVTVSAGGGGSGGGGSGGGGSGGGGSASLSVSVGETVTITCRASGNIHNYLAWYQQKQGKSPQLLVYNAKTLADGVPSRFSGSGSGTQYSLKINNLQPEDFGSYYCQHFWSTPYTFGGGTKLEIKRADAAPTVSIFPPSSEQLTSGGASVVCFLNNFTHCQELQQDECS
binds: [1] | [2] | [3]
